Results are given in words; binding and its absence hold for the method and conditions named. Binding seen in cells or lysates may run through a third protein. For some assays here: A result given as binding can be weak or reduced; the word gives no strength.
Legend:
[1] = biological target: HA-YFP-NOT9B (Arabidopsis NOT9Box lines) (Arabidopsis thaliana) (UniProt Q9LXU1); experiment: co-IP; competition: Arabidopsis NOT9Box against NOT9Box NOT1 Mox seedlings, FR 5 hr then 5 min R (Pfr) or long-wavelength FR (Pr); αGFP magnetic beads; phyA/NOT9B ratio quantified from three replicates
[2] = biological target: NLS-YFP-NOT9B (Arabidopsis) (Arabidopsis thaliana); experiment: co-IP; stable transgenic Arabidopsis seedlings, 4-day-old dark-grown, kept dark or FR light 5 hr then 5 min R (Pfr) or long-wavelength FR (Pr); total soluble protein, αGFP magnetic beads, IP buffer pH 7.8 with 450 mM NaCl, 4°C
[3] = biological target: HA-YFP-NOT9B ΔPNB (Arabidopsis) (Arabidopsis thaliana); experiment: as above
[4] = biological target: HA-YFP-NOT9B (Arabidopsis NOT9Box lines) (Arabidopsis thaliana) (UniProt Q9LXU1); experiment: as above
[5] = biological target: HA-YFP-NOT9B ΔGWB (Arabidopsis) (Arabidopsis thaliana); experiment: as above

The chains behind the UniProt entries cited, without tags or fusion partners. Where a name states a change or a piece, a line headed by the entry shows the natural chain unless it says otherwise.
UniProt Q9LXU1: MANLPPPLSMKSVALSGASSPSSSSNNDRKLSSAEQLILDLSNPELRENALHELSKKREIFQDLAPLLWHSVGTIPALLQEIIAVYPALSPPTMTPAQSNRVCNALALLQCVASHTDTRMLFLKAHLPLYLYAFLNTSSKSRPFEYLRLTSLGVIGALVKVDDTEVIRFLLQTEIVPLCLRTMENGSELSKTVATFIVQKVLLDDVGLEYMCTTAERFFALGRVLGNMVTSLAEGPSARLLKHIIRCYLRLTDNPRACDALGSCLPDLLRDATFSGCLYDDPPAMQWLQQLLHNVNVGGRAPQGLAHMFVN

B1: phyA (endogenous) (protein, UniProt P14712 1-1122)
chain: MSGSRPTQSSEGSRRSRHSARIIAQTTVDAKLHADFEESGSSFDYSTSVRVTGPVVENQPPRSDKVTTTYLHHIQKGKLIQPFGCLLALDEKTFKVIAYSENASELLTMASHAVPSVGEHPVLGIGTDIRSLFTAPSASALQKALGFGDVSLLNPILVHCRTSAKPFYAIIHRVTGSIIIDFEPVKPYEVPMTAAGALQSYKLAAKAITRLQSLPSGSMERLCDTMVQEVFELTGYDRVMAYKFHEDDHGEVVSEVTKPGLEPYLGLHYPATDIPQAARFLFMKNKVRMIVDCNAKHARVLQDEKLSFDLTLCGSTLRAPHSCHLQYMANMDSIASLVMAVVVNEEDGEGDAPDATTQPQKRKRLWGLVVCHNTTPRFVPFPLRYACEFLAQVFAIHVNKEVELDNQMVEKNILRTQTLLCDMLMRDAPLGIVSQSPNIMDLVKCDGAALLYKDKIWKLGTTPSEFHLQEIASWLCEYHMDSTGLSTDSLHDAGFPRALSLGDSVCGMAAVRISSKDMIFWFRSHTAGEVRWGGAKHDPDDRDDARRMHPRSSFKAFLEVVKTRSLPWKDYEMDAIHSLQLILRNAFKDSETTDVNTKVIYSKLNDLKIDGIQELEAVTSEMVRLIETATVPILAVDSDGLVNGWNTKIAELTGLSVDEAIGKHFLTLVEDSSVEIVKRMLENALEGTEEQNVQFEIKTHLSRADAGPISLVVNACASRDLHENVVGVCFVAHDLTGQKTVMDKFTRIEGDYKAIIQNPNPLIPPIFGTDEFGWCTEWNPAMSKLTGLKREEVIDKMLLGEVFGTQKSCCRLKNQEAFVNLGIVLNNAVTSQDPEKVSFAFFTRGGKYVECLLCVSKKLDREGVVTGVFCFLQLASHELQQALHVQRLAERTAVKRLKALAYIKRQIRNPLSGIMFTRKMIEGTELGPEQRRILQTSALCQKQLSKILDDSDLESIIEGCLDLEMKEFTLNEVLTASTSQVMMKSNGKSVRITNETGEEVMSDTLYGDSIRLQQVLADFMLMAVNFTPSGGQLTVSASLRKDQLGRSVHLANLEIRLTHTGAGIPEFLLNQMFGTEEDVSEEGLSLMVSRKLVKLMNGDVQYLRQAGKSSFIITAELAAANK
binding [1]: binds
binding [2]: binds
binding [3]: no binding
binding [4]: binds
binding [5]: binds
